According to paper PMC7925679:
These are yes or no findings as the source states them, for the method shown. Binding seen in cells or lysates may run through a third protein. Some results given as binding are weak or reduced against the parent protein; the word gives no strength. For some assays here: Sequences can lack the tags named with a protein.

By UniProt entry, the sequences of proteins in these tests, tags left out.
UniProt Q13546: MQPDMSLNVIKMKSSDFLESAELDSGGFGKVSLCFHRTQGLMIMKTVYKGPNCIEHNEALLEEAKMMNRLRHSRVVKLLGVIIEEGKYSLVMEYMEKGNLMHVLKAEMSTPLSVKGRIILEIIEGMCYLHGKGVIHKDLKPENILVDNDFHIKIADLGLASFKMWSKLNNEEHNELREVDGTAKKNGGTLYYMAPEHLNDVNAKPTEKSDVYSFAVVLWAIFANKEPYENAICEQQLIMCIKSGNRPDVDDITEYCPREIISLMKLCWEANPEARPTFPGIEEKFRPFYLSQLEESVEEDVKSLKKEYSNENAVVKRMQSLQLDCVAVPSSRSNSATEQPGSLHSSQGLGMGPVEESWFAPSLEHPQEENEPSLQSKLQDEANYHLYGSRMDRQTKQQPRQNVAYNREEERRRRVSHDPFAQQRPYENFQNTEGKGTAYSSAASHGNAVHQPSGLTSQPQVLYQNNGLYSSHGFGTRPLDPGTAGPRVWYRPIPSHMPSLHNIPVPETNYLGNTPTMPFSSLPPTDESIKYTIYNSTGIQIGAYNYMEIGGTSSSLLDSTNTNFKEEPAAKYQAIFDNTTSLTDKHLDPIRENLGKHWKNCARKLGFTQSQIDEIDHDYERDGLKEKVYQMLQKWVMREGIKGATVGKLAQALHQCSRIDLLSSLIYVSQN
UniProt P42773: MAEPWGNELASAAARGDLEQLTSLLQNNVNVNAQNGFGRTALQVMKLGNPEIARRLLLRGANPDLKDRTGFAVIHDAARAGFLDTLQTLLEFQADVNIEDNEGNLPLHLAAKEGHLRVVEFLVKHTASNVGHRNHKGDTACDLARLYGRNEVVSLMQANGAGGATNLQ

Tests used:
[1] = biological target: T1, cylindromatosis (CYLD) protein (human (endogenous in HONE1)) (UniProt Q9NQC7); test: co-IP; endogenous proteins; HONE1 and HONE1-EBV cell lysates (IP lysis buffer, 1 mg protein) immunoprecipitated with CYLD antibody (2 ug, overnight, 4 C) on Dynabeads protein A; Western blot
T1 sequence: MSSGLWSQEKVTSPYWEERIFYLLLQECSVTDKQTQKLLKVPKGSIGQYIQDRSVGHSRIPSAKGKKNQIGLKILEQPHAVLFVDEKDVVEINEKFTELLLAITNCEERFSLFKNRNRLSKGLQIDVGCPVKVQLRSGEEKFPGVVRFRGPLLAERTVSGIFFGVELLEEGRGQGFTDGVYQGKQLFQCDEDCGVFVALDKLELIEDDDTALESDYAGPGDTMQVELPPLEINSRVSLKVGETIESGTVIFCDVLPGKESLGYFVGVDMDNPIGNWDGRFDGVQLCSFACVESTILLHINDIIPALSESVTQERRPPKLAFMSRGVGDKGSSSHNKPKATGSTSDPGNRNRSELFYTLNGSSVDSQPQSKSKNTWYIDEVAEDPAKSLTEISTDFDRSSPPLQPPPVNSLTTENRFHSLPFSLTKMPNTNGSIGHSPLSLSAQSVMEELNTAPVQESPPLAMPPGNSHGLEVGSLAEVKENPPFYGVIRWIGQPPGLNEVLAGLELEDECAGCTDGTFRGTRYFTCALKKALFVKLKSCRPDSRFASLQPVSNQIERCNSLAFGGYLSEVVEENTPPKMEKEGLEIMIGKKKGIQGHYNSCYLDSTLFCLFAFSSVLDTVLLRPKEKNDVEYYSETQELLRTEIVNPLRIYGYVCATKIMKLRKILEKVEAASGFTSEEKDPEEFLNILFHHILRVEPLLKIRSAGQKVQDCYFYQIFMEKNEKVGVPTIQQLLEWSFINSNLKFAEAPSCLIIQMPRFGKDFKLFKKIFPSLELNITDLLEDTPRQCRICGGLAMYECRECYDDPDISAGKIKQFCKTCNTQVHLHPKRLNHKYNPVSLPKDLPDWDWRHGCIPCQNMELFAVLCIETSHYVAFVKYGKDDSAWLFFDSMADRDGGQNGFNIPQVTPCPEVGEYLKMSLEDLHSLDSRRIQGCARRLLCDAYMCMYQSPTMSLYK

[2] = biological target: T2, Flag-tagged full-length CYLD (FL) (UniProt Q9NQC7); test: co-IP; 293T cells transfected with Flag-CYLD (full length or deletion mutants) and Myc-tagged partner; lysates immunoprecipitated with Flag antibody on Dynabeads protein A; Western blot
T2 sequence: T1 sequence

[3] = biological target: T1, cylindromatosis (CYLD) protein (human (endogenous in HONE1)); test: proximity ligation; in situ PLA (DuoLink In Situ Red, mouse/rabbit) in fixed HONE1 cells with primary antibodies to CYLD and p18

Substance: RIP1 (Receptor Interaction protein 1) (from UniProt Q13546 1-671)
- binding [1]: binds

Substance: Myc-tagged full-length p18 (FL) (from UniProt P42773 1-168)
- binding [2]: binds

Substance: Myc-RIP1 (from UniProt Q13546 1-671)
- binding [2]: binds

Substance: p18INK4C (from UniProt P42773 1-168)
- binding [3]: binds
- binding [1]: binds
